According to patent US20050032124A1, “Identification of genotype-selective agents for treating Huntington's disease” (priority 2003, published 2005):

Test system: BJ-TERT/LT/ST/RAS^V12 tumorigenic cells
Assay: Calcein AM viability assay, dilution-series retest
Format: cell-based, human
Conditions: from selectivity ratio for each subsequent pair of cell lines in a series
Method: Described here is work carried out to identify compounds with increased potency or activity in the presence of hTERT, LT, ST, E6, E7 or RAS^V12. […] The primary screen tested (in quadruplicate) the effect of treating tumorigenic BJ-TERT/LT/ST/RAS^V12 engineered tumorigenic cells with each compound for 48 hours at a concentration of 4 μg/mL, corresponding to 10 μM for a compound with a molecular weight of 400, which is the approximate median molecular weight of the libraries. Cell viability was measured using the dye calcein acetoxymethyl ester (calcein AM) (Wang et al., 1993, Hum. Immunol. 3 7, 264-270), which is a non-fluorescent compound that freely diffuses into cells. In live cells, calcein AM is cleaved by intracellular esterases, forming the anionic fluorescent derivative calcein, which cannot diffuse out of live cells. […] The IC50 value (concentration required to inhibit 50% of the calcein AM signal) was calculated for each compound in each cell line (Table 1).
Calcein acetoxylmethyl ester (AM) is a cell membrane-permeable, non-fluorescent compound that is cleaved by intracellular esterases to form the anionic, cell-impermeable, fluorescent compound calcein. Viable cells are stained by calcein because of the presence of intracellular esterases and because the intact plasma membrane prevents fluorescent calcein from leaking out of cells (Wang et al., 1993, supra). Cells were seeded in 384-well plates using a Zymark Sciclone ALH, treated with each compound in triplicate at 4 μg/mL in the primary screen for two days, washed with phosphate-buffered saline on a Packard Minitrak with a 384-well washer and incubated for four hours with 0.7 μg/mL calcein (Molecular Probes). Total fluorescence intensity in each well was recorded on a Packard Fusion platereader, and converted to a percent inhibition of signal by subtracting the instrument background and dividing by the average signal obtained when cells were not treated with any compound.
Replica daughter plates were prepared with a Zymark Sciclone ALH and integrated Twister II by diluting stock plates 50 fold in medium lacking serum and pen/strep to obtain a compound concentration in daughter plates of 80 μg/ml with 2% DMSO. Assay plates were prepared by seeding cells in black, clear bottom 384-well plates in columns 1-23 (6000 cells/well in 57 μl) using a syringe bulk dispenser. Columns 3-22 were treated with compounds from a daughter library plate by transferring 3 μl from the daughter library plate using 384-position fixed cannula array. The final compound concentrations in assay plates were thus 4 μg/ml. The assay plates were incubated for 48 hours at 37° C. in humidified incubator containing 5% CO2. Plate processing for the calcein AM viability assay was performed using an integrated Minitrak/Sidetrak robotic system from Packard Bioscience (Perkin Elmer). Assay plates were washed with phosphate buffered saline, and 20 μl of calcein AM (0.7 μg/ml) per well was added. Plates were incubated at room temperature for 4 hours. Fluorescence intensity was determined using a Fusion platereader with filters centered on an excitation of 485 nm and an emission of 535 nm.
Compounds to be retested were purchased from manufacturers. Stocks were prepared in DMSO at a concentration of 1 mg/ml in 384-well polypropylene plates with a 16-point, two-fold dilution dose curve of each compound in a column, in duplicates. Column 1-2 and 23-24 were left empty for controls. Daughter retest plates were prepared from stock retest plate by diluting 66.6 fold in DMEM in 384-well deep-deep well plates (4.5 μl transfer into 300 μl). Cells were seeded at a density of 6000 per well in 40 μl, and 20 μl was added from a daughter retest plate. The plates were incubated for two days at 37° C. with 5% CO2.

| SMILES | Genetic basis of Selectivity |
| --- | --- |
| COc1ccc(C[C@H]2C(=O)N[C@@H](C)C(=O)N(C)[C@@H]3C(=O)N(C)[C@@H](Cc4ccc(O)c(c4)Oc4ccc(cc4)[C@@H]3O)C(=O)N[C@H](C)C(=O)N[C@@H](C)C(=O)N2C)cc1 [Bouvardin] | non-specific |
| CC[C@@]1(O)C(=O)OCc2c1cc1n(c2=O)Cc2cc3ccccc3nc2-1 [Camptothecin] | RAS^V12/PP2A/RB |
| COc1cccc2c1C(=O)c1c(O)c3c(c(O)c1C2=O)C[C@@](O)(C(C)=O)C[C@@H]3O[C@H]1C[C@H](N)[C@H](O)[C@H](C)O1 [Daunorubicin] | TERT/RB |
| COc1cccc2c1C(=O)c1c(O)c3c(c(O)c1C2=O)C[C@@](O)(C(=O)CO)C[C@@H]3O[C@H]1C[C@H](N)[C@H](O)[C@H](C)O1 [Doxorubicin] | TERT/RB |
| CS[C@H]1SC[C@H]2C(=O)N(C)[C@@H](C(C)C)C(=O)OC[C@@H](NC(=O)c3cnc4ccccc4n3)C(=O)N[C@@H](C)C(=O)N(C)[C@@H]1C(=O)N(C)[C@@H](C(C)C)C(=O)OC[C@@H](NC(=O)c1cnc3ccccc3n1)C(=O)N[C@@H](C)C(=O)N2C [Echinomycin] | non-specific |
| O=C1c2c(O)ccc(O)c2C(=O)c2c(NCCNCCO)ccc(NCCNCCO)c21 [Mitoxantrone] | TERT/RB |
| Cc1c2ccccc2c(CSC(=N)N)c2ccccc12.Cl [NSC146109] | non-specitic |
| NC(=O)c1cn([C@@H]2O[C@H](CO)[C@@H](O)[C@H]2O)c2ncnc(N)c12 [Sangivamycin] | non-specific |
